Results: patent publication US20210283233A1
No constants are given. Whether binding was seen depends on the method and setting. Binding can be weak; no strength is given. Where a sequence is shown, tags or fusion partners need not be part of it.

Legend:
[1] = target: RhopH3, yeast two-hybrid prey; assay: yeast two-hybrid and immunoprecipitation screens
[2] = target: RAP-1, yeast two-hybrid prey; assay: yeast two-hybrid and immunoprecipitation screens

B1: PfSEP-1A yeast two-hybrid bait (rPfSEP-1A region, aa 810-1083, as fusion with truncated transcription factor) (protein)
chain: NEDRGIYDELLENDMCDLYNLKMHDLHNLKSYDFGLSKDLLKKDIFIYSNNLKNDDMDDDDNNNMNDIAIGENVIYENDIHENNIDDNDMYNNYVNGNDLYINNMQDDAMDDIVYDEEEIKSFLDKLKSDISNQMNVKNGNVEVTGNGGNEEMSYINNDENLQAFDLLDNFHMDDYGNNYNDNEEDGDGDGDDDEQKKRKQKELHNVNGKLNLSDLNELNVDDINNNFYMSTPRKSIDERKDTECQTDFPLLDVSRNTNRTPRRKSVEVILVE
binding [1]: binds | binding [2]: binds
